Experimental data from publication PMC11464796.

Chains of the proteins cited; added tags and fusions are not shown. Lines headed by an entry give the natural chain unless they say otherwise; changes in a name come on top.
UniProt A0QW02: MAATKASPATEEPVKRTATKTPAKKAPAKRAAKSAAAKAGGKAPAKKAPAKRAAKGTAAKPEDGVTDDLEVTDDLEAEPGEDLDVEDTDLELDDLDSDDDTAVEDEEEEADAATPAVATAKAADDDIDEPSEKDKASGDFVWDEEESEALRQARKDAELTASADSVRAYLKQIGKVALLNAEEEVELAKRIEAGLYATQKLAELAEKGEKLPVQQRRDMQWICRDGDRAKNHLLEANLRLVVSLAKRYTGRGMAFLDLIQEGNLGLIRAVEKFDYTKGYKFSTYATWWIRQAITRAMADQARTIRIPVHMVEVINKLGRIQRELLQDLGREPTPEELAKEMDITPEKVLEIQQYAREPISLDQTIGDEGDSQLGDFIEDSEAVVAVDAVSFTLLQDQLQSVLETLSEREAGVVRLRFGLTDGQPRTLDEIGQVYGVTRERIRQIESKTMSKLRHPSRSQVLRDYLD

Tests used:
[1] = biological target: Msm σ^A-6xHis (for cryo-EM) (Mycobacterium smegmatis) (UniProt A0QW02); experiment: cryo-EM structure; RNAP, HelD, σ^A, RbpA and upstream fork promoter DNA (TK71/72) mixed 1:3:3:5:5 at 4 °C, SEC-purified (20 mM Tris-HCl pH 7.8, 150 mM NaCl, 10 mM MgCl2, 1 mM DTT); both purified
[2] = biological target: Msm σ^A-6xHis (for cryo-EM) (Mycobacterium smegmatis) (UniProt A0QW02); experiment: cryo-EM structure; RNAP core, HelD, σ^A, RbpA mixed 1:3:3:5 at 4 °C, SEC-purified (Superose 6 Increase; 20 mM Tris-HCl pH 7.8, 150 mM NaCl, 10 mM MgCl2, 1 mM DTT); no DNA; both purified

binding [1]: binds
binding [2]: binds
B1: Msm HelD, wild type, recombinant tag-less (enzyme, UniProt A0QUE0 1-736)
chain: MSGRDYEDELQSERDYVAGLYARLDAERAQSQRRYAAALREHGGTAVERDAEVRALAKDIARLNVADNGLCFGRLDTLDDARLYIGRLGIFDRDNDFEPLLLDWRAPMARPFYVATAANPENMRRRRQFHTLGRKVVDFTDEILGRPTGAEHDATNDAALLAAVNAPRGEGMRDIVATIQAEQDQVIRLDHTGVLVIEGGPGTGKTVVALHRVAYLLYTYRKQMERHGVLVVGPTPAFLDHIGRVLPSLGESDAVFMTPGDFVPGLHVTAEDTPEAAEVKGSLKILDVLKAAVADRQELPSEPIPIDLSDVTMRIDAETAKWARDEARKTGLPHNEARAEFVDVVTYVVTERAVARIGRGWLTRDDKHAWEKMRADVVGELEDHEQFNAALDALWPILTPEDVLAQLYTSHERLRAAGAPECLWRADGEAWTVSDVPLLDELVDLLGRNKAADEAAERERREEEAYAAGVLDLMVDREDLMDDEDHLLAQDLIDAEELADRFKEQDNRELSERAAADREWTYGHVVVDEAQELSEMDWRLLMRRCPRRSFTIVGDLAQRRSPAGARSWGAMLDSYVPGRWVYKSLSVNYRTPAEIMAVAAAVLAEFAPDATPPDSVRACGVAPWARQVTDDDIASAIAEFVSEEAGREGTSVVIGPPDVPGTVPPSETKGLEFDAVLVVEPERILADGPRGAAELYVALTRATQRLGVLYRDALPQALAGLAEGDAAATVEQRTSA

These are yes or no findings as the source states them, for the method shown. Binding can be weak; no strength is given. Where a sequence is shown, tags or fusion partners need not be part of it.
